Assay results reported in PubChem BioAssay AID1307 (SRMLSC, 2008).
Screen size: about 1,200 compounds; fewer than 10 were called active.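 Rule for the calls: active = inhibition reaching a set limit at one or more tested concentrations; inactive = inhibition under that limit at every dose.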 Some of the results follow. Measured potencies and affinities stand elsewhere.

Assay: yeast RAM network inhibitors, dose response, S. cerevisiae (AID 1307);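 note: 0% = DMSO vehicle wells and 100% = 10 µM 1-NA-PP1 control; higher inhibition means more yeast growth since RAM block rescues cells from 5-FOA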
Settings: S. cerevisiae RAM network URA3 reporter, 5-FOA growth OD615, hits give high values, yeast express analog-sensitive mutant Cbk1 kinase; at 100 µM unless noted

Max inhibition, inactive:
Cc1cccc(Nc2nc(NCc3ccco3)c3ccccc3n2)c1 0.95% [at 0.196 µM]
CCOP(=O)(OCC)C(Nc1cccc(C(F)(F)F)c1)c1ccc(Br)cc1 (configuration not stated) -0.48% [at 25 µM]
Cn1c(N=Nc2ccc(N3CCOCC3)cc2)[n+](C)c2ccccc21 25%
O=C(Nc1cc(Sc2ccccn2)cc([N+](=O)[O-])c1)c1cccc(Cl)c1 2.43% [at 50 µM]
COc1nc(-c2ccccc2)ccc1-c1noc(COc2ccccc2)n1 5.72% [at 50 µM]
CCC(Oc1ccc2c(=O)c(-c3ccccc3OC)coc2c1)C(=O)OCc1ccccc1 (configuration not stated) 5.06%
CCCCn1c(-c2cccs2)nc2nc3ccccc3nc21 4.04% [at 1.563 µM]
Cc1ccc(C(=O)C(OC(=O)CCC(=O)Nc2cccc(C)c2)c2ccccc2)cc1 (configuration not stated) 5.19%
CCCNC(=O)c1ccccc1NC(=O)c1ccc(CSc2ccccc2)cc1 5.46% [at 50 µM]
CCN(CC)S(=O)(=O)c1cccc(-c2nnc(SCCOc3ccccc3C)o2)c1 2.73% [at 25 µM]
CC(=C\c1ccccc1)/C=C1/SC(=S)N(C(C(=O)O)C(C)C)C1=O (configuration not stated) 4.56% [at 50 µM]
COc1cc(/C=N/OCC(=O)NC23CC4CC(CC(C4)C2)C3)ccc1OCc1ccccc1 2.77%
Fc1ccc(CSc2nnc(-c3cc4c(s3)-c3ccccc3CC4)o2)cc1 3.84% [at 25 µM]
CC1CCCC(NC(=O)COC(=O)CSc2ccc3ccccc3c2)C1C (configuration not stated) 2.5% [at 6.25 µM]
COCCN1C(=O)/C(=C/c2ccc(N3CCCC3)cc2C)SC1=S 2.82%
O=C(CSCc1ccc(Cl)cc1)Nc1cccc(C(=O)Nc2ccccc2C(=O)O)c1 1.32% [at 0.196 µM]
COc1cccc(N/C(SCc2cccc([N+](=O)[O-])c2)=C(/C#N)C(=O)NCc2cccs2)c1 2.89%
O=C(COC(=O)CNS(=O)(=O)c1cccc(Br)c1)Nc1ccccc1Sc1ccccc1 1.5% [at 1.563 µM]
CCCCSC1=N/C(=C/c2ccsc2)C(=O)N1c1ccccc1 4.01%
O=C(Nc1ccn(Cc2ccccc2F)n1)c1ccc(COc2ccc(Br)cc2)cc1 3.47% [at 3.125 µM]
CCOC(=O)c1c(NC(=S)Nc2ccc(OC)cc2)sc2c1CCCCC2 3.37% [at 1.563 µM]
Cc1cccc(C(=O)Nc2cccc(OC(=O)c3cccc(C)c3)c2)c1 7.03%

Copied from the entries so far for reference:
Max inhibition, inactive:
O=C(Nc1cc(Sc2ccccn2)cc([N+](=O)[O-])c1)c1cccc(Cl)c1 2.43% [at 50 µM]
COc1nc(-c2ccccc2)ccc1-c1noc(COc2ccccc2)n1 5.72% [at 50 µM]
CCC(Oc1ccc2c(=O)c(-c3ccccc3OC)coc2c1)C(=O)OCc1ccccc1 (configuration not stated) 5.06%
CCCCn1c(-c2cccs2)nc2nc3ccccc3nc21 4.04% [at 1.563 µM]
